The text below walks through data of the supplement of paper PMC10373366.

Counter-ions that a name gives are not always drawn. The list shows a part of the results. Single values are uncertain, as repeats are few or missing.

The subject of this experiment is A2780. Nature of the experiment: cell growth inhibition ratio vs untreated control (CCK8); higher = stronger inhibition of cell viability. To be noted: 10 µM; 48 h. On the procedure:
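Natural product library (Topscience) screened at 10 µM final concentration for 48 h on ovarian cancer A2780 cells and patient-derived ovarian cancer cells (PDC) in 96-well plates; viability read by CCK8 and reported as inhibition ratio (%) relative to untreated control. Single-dose primary screen.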
As for `COc1cccc(C=O)c1OC` [o-Veratraldehyde], the “cell growth inhibition ratio” value was determined as 1.3%.
`CCO[C@H]1O[C@@H]2O[C@@]3(C)CC[C@H]4[C@H](C)CC[C@@H]([C@H]1C)[C@@]24OO3` [Arteether]: the “cell growth inhibition ratio” value was found to be 30.5%.
Turning to `C=C[C@@H]1C2=CCOC(=O)C2=CO[C@H]1O[C@@H]1O[C@H](CO)[C@@H](O)[C@H](O)[C@H]1O` [Gentiopicrin], the “cell growth inhibition ratio” value came to 8.87%.
Turning to `C1=C2CCCN[C@H]2[C@@H]2C[C@H]1[C@H]1CCCCN1C2` [Aloperine], the “cell growth inhibition ratio” value worked out at 8.97%.
Turning to `CC(C)=CCC[C@](C)(O)[C@H]1CC[C@]2(C)[C@@H]1[C@H](O)C[C@@H]1[C@@]3(C)CC[C@H](O)C(C)(C)[C@@H]3[C@@H](O[C@@H]3O[C@H](CO)[C@@H](O)[C@H](O)[C@H]3O)C[C@]12C` [Ginsenoside Rh1], the “cell growth inhibition ratio” value came to 22.8%.
Consider `CC(C)=CCOc1c2occc2cc2ccc(=O)oc12` [Imperatorin], for which the “cell growth inhibition ratio” value stood at 4.15%.
In the case of `CCC1=C[C@H]2CN3CCc4c([nH]c5ccccc45)[C@](C(=O)OC)(C2)[C@H]13` [Catharanthine] it was -1.28%.
`COc1cc(O)cc(/C=C/c2ccc(O)cc2)c1` [Pinostilbene]: the “cell growth inhibition ratio” value was found to be 0.271%.
Consider `C[C@@]12C(=O)OC(=O)[C@]1(C)[C@H]1CC[C@@H]2O1` [Cantharidin], for which the “cell growth inhibition ratio” value was found to be 89%.
For the compound `CC(=O)O[C@H]1[C@H]2O[C@]23[C@@H]2CC[C@@H]4C[C@@H](O)CC[C@]4(C)[C@H]2CC[C@]3(C)[C@H]1c1ccc(=O)oc1` [Cinobufagin], the “cell growth inhibition ratio” value stood at 88.9%.
`Cc1nccc2c1[nH]c1ccccc12` [Harmane]: the “cell growth inhibition ratio” value was determined as 20.1%.
Take `COc1cc2c(cc1OC)C13CCN4CC5=CCOC6CC(=O)N2C1C6C5CC43` (stereo not given) [Brucin]: the “cell growth inhibition ratio” value amounted to 19.9%.
As to `CC1=C(O)C(=O)C=C2C1=CC=C1[C@@]2(C)CC[C@@]2(C)[C@@H]3C[C@](C)(C(=O)O)CC[C@]3(C)CC[C@]12C` [Celastrol], the “cell growth inhibition ratio” value is 0.5%.
`COc1ccc2c3c([nH]c2c1)C(C)=NCC3` [Harmaline]: the “cell growth inhibition ratio” value turned out to be 7.08%.
In the case of `O=c1cccc2n1C[C@@H]1CNC[C@H]2C1` [Cytisine], the “cell growth inhibition ratio” value was 1.32%.
As for `CN1[C@@H]2C[C@@H](OC(=O)[C@H](CO)c3ccccc3)C[C@H]1[C@@H]1O[C@@H]12` [Scopolamine HBr trihydrate], the “cell growth inhibition ratio” value was found to be 4.91%.
With `COc1cc2c(c(OC)c1OC)-c1ccc(OC)c(=O)cc1[C@@H](NC(C)=O)CC2` [Colchicine], the “cell growth inhibition ratio” value amounted to 87.7%.
The value for `C[C@H]1CCC/C=C/[C@@H]2C[C@H](O)C[C@H]2[C@H](O)/C=C/C(=O)O1` [Brefeldin A] was 90%.
The value for `C[C@@H]1CC[C@@]2(OC1)O[C@H]1C[C@H]3[C@@H]4CC=C5C[C@@H](O[C@@H]6O[C@H](CO)[C@@H](O[C@@H]7O[C@@H](C)[C@H](O)[C@@H](O)[C@H]7O)[C@H](O)[C@H]6O[C@@H]6O[C@@H](C)[C@H](O)[C@@H](O)[C@H]6O)CC[C@]5(C)[C@H]4CC[C@]3(C)[C@H]1[C@@H]2C` [Dioscin] was 93.4%.
For the compound `O=C1C[C@@H]2OCC=C3CN4CC[C@]56c7ccccc7N1[C@H]5[C@H]2[C@H]3C[C@H]46` [Strychnine Sulfate], the “cell growth inhibition ratio” value was 15.7%.
As to `CCC12C=CCN3CC[C@@]4(c5ccc(OC)cc5N(C)[C@H]4[C@@](O)(C(=O)OC)[C@@H]1OC(C)=O)[C@@H]32` (stereo not given in full) [Vindoline], the “cell growth inhibition ratio” value was -1.16%.
The value for `COC1=C[C@@H]2[C@@H]3Cc4ccc(OC)c(O)c4[C@]2(CCN3C)CC1=O` [Sinomenine hydrochloride] was 0.272%.
As for `CC1C(=O)OC2C(O)C34C5OC(=O)C3(OC3OC(=O)C(O)C34C(C(C)(C)C)C5O)C12O` (stereo not given) [Ginkgolide C], the “cell growth inhibition ratio” value worked out at 22.1%.
The value for `Cc1c([C@H](C)[C@@H]2NC[C@@H](C)C[C@H]2O)ccc2c1C[C@H]1[C@H]2CC=C2C[C@@H](O)CC[C@@]21C` [Veratramine] was 46.9%; that for `CC(C)c1ccc2c(c1O)CC[C@H]1C3=C(CC[C@]21C)C(=O)OC3` [Triptophenolide] was 5.44%.
Consider `CC[C@H](C)[C@H]1O[C@]2(C=C[C@@H]1C)C[C@@H]1C[C@@H](C/C=C(\C)[C@@H](O[C@H]3C[C@H](OC)[C@@H](O[C@H]4C[C@H](OC)[C@@H](O)[C@H](C)O4)[C@H](C)O3)[C@@H](C)/C=C/C=C3\CO[C@@H]4[C@H](O)C(C)=C[C@@H](C(=O)O1)[C@]34O)O2.CO[C@H]1C[C@H](O[C@H]2[C@H](C)O[C@@H](O[C@@H]3/C(C)=C/C[C@@H]4C[C@@H](C[C@]5(C=C[C@H](C)[C@@H](C(C)C)O5)O4)OC(=O)[C@@H]4C=C(C)[C@@H](O)[C@H]5OC/C(=C\C=C\[C@@H]3C)[C@]54O)C[C@@H]2OC)O[C@@H](C)[C@@H]1O` [Abamectin], for which the “cell growth inhibition ratio” value turned out to be 69.4%.
As for `O=C1CCC[C@@H]2[C@H]3CCCN4CCC[C@@H](CN12)[C@@H]34` [(+)-Matrine], the “cell growth inhibition ratio” value came out at 4.48%.
As to `C[C@H]1O[C@H](O[C@H]2[C@H](O)[C@@H](O)[C@@H](O)[C@H](O)[C@@H]2O)[C@@H](N)C[C@@H]1NC(=N)C(=O)O` [Kasugamycin hydrochloride], the “cell growth inhibition ratio” value turned out to be 17.6%.
On to `CC1=C2C(=O)[C@H]3[C@@H](CC=C4C[C@@H](O)CC[C@@]43C)[C@@H]2CC[C@]12O[C@@H]1C[C@H](C)CN[C@H]1[C@H]2C` [Jervine], for which the “cell growth inhibition ratio” value is 15%.
The value for `NCC(O)c1ccc(O)cc1` (stereo not given) [Octopamine hydrochloride] was 11.7%; that for `O=C(O)C1C2CCC(O2)C1C(=O)O` (stereo not given) [Sodium Demethylcantharidate] was -4.95%; that for `COc1cc(C(=O)O[C@H]2[C@@H]3C=CO[C@@H](O[C@@H]4O[C@H](CO)[C@@H](O)[C@H](O)[C@H]4O)[C@@H]3[C@@]3(CO)O[C@@H]23)ccc1O` [Picroside II] was 13.6%.
In the case of `C[C@H]1CC(=O)C[C@@H]2CC[C@H]3[C@@H]4CC[C@H](O)[C@@]4(C)CC[C@@H]3[C@]21C` [Mesterolone] it was 13.3%; in that of `COc1cc2c(cc1OC)[C@@H](Cc1ccc(O)c(Oc3cc4c(cc3OC)CCN(C)[C@@H]4Cc3ccc(O)cc3)c1)N(C)CC2.[O-][Cl+3]([O-])([O-])O` [Liensinine Perchlorate], 22.9%.
The value for `CC(=O)O[C@H]1CC[C@H]2[C@@H]3CCC4=CC(=O)CCC4=C3C=C[C@]12C` [Trenbolone acetate] was -36.6%; that for `COC1=C[C@@H]2[C@@H]3Cc4ccc(OC)c(O)c4[C@]2(CCN3C)CC1=O` [Sinomenine] was 6.36%.
`CCN1C[C@]2(COC)[C@H](O)C[C@H](OC)[C@@]34[C@@H]5C[C@@]6(O)[C@H](OC(=O)c7ccccc7)[C@@H]5[C@@](OC(C)=O)([C@@H]([C@H](OC)[C@H]23)[C@@H]14)[C@@H](O)[C@@H]6OC` [Aconitine]: the “cell growth inhibition ratio” value stood at 13.7%.
For `CN1CCc2cc3c(cc2C1C1OC(=O)c2c1ccc1c2OCO1)OCO3` (single isomer, unassigned; (+)) [(+)-Bicuculline], the “cell growth inhibition ratio” value came to 4.33%.
`C/C=C/C#CC#C/C=C/c1ccco1` [Atractylodin]: the “cell growth inhibition ratio” value is -6.71%.
For `O=C1CCC[C@@H]2[C@H]3CCCN4CCC[C@H](CN12)[C@@H]34` [Sophoridine], the “cell growth inhibition ratio” value came out at 0.373%.
